Tests used:
skin collagen = assay: hydrothermal stability, shrinkage temperature (Ts) of tanned leather by modified DSC
[1] = residual, unfixed dye (Napthol blue black) at penetration and fixation stages
[2] = air dried leather without any post tannage treatment
[3] = dye concentration 0.25 % wt, pH 5
[4] = dye concentration 0.5 % wt, pH 5

| Structure (SMILES) | Ts (skin collagen; [2]) [°C] | residual, unfixed dye [1, 3] [%] | residual, unfixed dye ([1]; dye concentration 0.25 % wt, pH 7) [%] | residual, unfixed dye [1, 4] [%] | residual, unfixed dye ([1]; dye concentration 0.5 % wt, pH 7) [%] | Ts (skin collagen; pH 9.2, 5% offer) [°C] | Ts (skin collagen; pH 9.2, about 10% offer, maximum effect) | residual, unfixed dye ([1]; dye concentration 0.25 % wt, pH 8) [%] | residual, unfixed dye ([1]; dye concentration 0.5 % wt, pH 8) [%] |
| --- | --- | --- | --- | --- | --- | --- | --- | --- | --- |
| O=CCCCC=O [GA, glutaraldehyde, reference compound] | 78 | 1.4 | 6.4 | 1.5 | 11.6 |  |  |  |  |
| O=c1n(CC2CO2)c(=O)n(CC2CO2)c(=O)n1CC1CO1 (stereo not drawn) [TGIC, trigycidyl isocyanurate] | 85 | 0.7 |  | 1.0 |  | 80 | greater than 85 °C | 3.3 | 4.9 |

Source: US20090300848A1, “EPOXIDE-BASED TANNAGE SYSTEM” (BLC LEATHER TECHNOLOGY CENTRE LTD, priority 2006, published 2009)
